Assay: Corn oil recovery from syrup with additive (heating, centrifugation)
Conditions: 300 ppm additive in 40 g CDS syrup, 85° C. 20 minutes, 4500 rpm 4 minutes

With “polyoxyethylene (20) sorbitan monooleate [Polysorbate 80]” the “corn oil separated as a top layer” value (FIG. 9) was “small oil layer on the top” and the “corn oil separated as a top layer” value (FIG. 10) was “small oil layer on the top”.
